Results as given in paper PMC7575581.
These are yes or no findings as the source states them, for the method shown. Binding seen in cells or lysates may run through a third protein. Some binding calls cover weakened binding; strength is not graded here.

Chains of the proteins cited; added tags and fusions are not shown.
UniProt O75679: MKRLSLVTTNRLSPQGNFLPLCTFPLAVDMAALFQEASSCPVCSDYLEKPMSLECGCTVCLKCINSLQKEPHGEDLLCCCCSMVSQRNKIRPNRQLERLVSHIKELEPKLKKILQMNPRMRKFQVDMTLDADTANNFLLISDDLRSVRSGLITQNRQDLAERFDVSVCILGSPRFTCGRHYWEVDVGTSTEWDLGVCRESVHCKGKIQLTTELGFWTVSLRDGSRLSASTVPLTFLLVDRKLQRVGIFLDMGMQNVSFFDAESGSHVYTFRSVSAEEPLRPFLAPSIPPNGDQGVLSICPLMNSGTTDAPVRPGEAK

Columns and labels:
[1] = biological target: T1, Importin 13 (human (endogenous in human lung cancer cell lines and HBE)) (UniProt O94829); test: co-IP; lung cancer cell lysates; polyclonal anti-IPO13 antibody or rabbit IgG overnight at 4 °C, protein A/G agarose beads 6 h at 4 °C; blot with anti-RFPL3
T1 sequence: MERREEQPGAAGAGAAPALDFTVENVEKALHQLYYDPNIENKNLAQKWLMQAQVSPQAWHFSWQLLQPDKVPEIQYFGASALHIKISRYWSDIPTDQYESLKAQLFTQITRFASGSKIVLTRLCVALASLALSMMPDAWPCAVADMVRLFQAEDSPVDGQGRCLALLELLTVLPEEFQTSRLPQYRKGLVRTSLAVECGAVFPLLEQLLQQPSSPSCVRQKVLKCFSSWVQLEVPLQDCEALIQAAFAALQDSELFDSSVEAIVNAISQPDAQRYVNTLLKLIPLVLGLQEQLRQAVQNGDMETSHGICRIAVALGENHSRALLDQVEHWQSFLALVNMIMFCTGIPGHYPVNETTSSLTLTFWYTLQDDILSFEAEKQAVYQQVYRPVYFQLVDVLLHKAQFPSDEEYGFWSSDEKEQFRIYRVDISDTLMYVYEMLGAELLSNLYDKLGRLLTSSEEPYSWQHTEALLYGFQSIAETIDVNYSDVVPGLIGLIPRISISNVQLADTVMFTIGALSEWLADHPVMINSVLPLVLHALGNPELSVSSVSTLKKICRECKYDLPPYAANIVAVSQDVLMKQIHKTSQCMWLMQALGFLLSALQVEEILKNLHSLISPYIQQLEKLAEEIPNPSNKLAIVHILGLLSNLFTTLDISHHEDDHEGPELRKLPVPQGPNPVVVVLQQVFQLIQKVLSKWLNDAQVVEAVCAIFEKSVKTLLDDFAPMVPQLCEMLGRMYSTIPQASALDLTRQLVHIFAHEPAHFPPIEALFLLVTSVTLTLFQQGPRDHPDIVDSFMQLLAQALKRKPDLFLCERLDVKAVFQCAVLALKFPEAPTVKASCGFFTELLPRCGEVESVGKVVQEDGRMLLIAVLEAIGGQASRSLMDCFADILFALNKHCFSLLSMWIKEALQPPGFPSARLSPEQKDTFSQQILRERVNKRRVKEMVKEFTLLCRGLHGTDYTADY

[2] = biological target: T1, Importin 13 (human (endogenous in human lung cancer cell lines and HBE)); test: condition: only in HBE (normal lung epithelial cell) lysate; co-IP; HBE (normal lung epithelial cell) lysate; polyclonal anti-IPO13 antibody or rabbit IgG overnight at 4 °C, protein A/G agarose beads; blot with anti-RFPL3
[3] = biological target: T1, Importin 13 (human (endogenous in human lung cancer cell lines and HBE)); test: co-IP; cells transiently transfected with Flag-tagged RFPL3 or truncation mutants, lysed 48 h after transfection; precipitated with anti-IPO13 (endogenous IPO13) or rabbit IgG control; blot with anti-Flag

Substance	binding [1]	binding [2]	binding [3]
RFPL3 (from UniProt O75679 1-317)	binds	no binding	–
full-length RFPL3-FLAG (1–317) (from UniProt O75679 1-317)	–	–	binds
